The whole screen tested about 53,000 sequences, of which about 3,700 (7%) were called active.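 Rule for the calls: active = gene knockdowns whose robust z-score for IL-1 alpha signal is at least 2 or at most -2, so actives lie on both sides; inactive = the rest.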 The list shows a part of the results.

This assay is described as follows: Components of the Cytosolic LPS Sensing Pathway: Gene Identification via Genome-wide siRNA Screen.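 Note: robust z of the log signal after scaling to non-targeting control siRNA wells of the plate.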 The settings on record: RAW264.7 macrophages, IL-1a HTRF, actives lie on both sides, screened at 100 nM (by protocol), cells primed 5 h with Pam3CSK4 first. The gist of the method: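 Knockdown: 100 nM siRNA, 48h, RAW264.7. Stimulation: Pam3CSK4 5 h, then LipidA via TransIT-TKO 24 h. Output: supernatant IL-1a HTRF, negative-control-normalized, log robust z-score; viability by CellTiter-Glo.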
Consider GGCCCUUGAUAACUUUUCCTT against Mmachc, for which the z-score was inactive: -0.121.
To GGGACACGAUGAGGAGUCATT against Cfap410 belongs active: -2.21; to CGACUUGAACAUGGUAAAATT against Eif5b, inactive: 0.307.
Then GGAGACAGAAAAUCAAGGCTT against Taf7, with inactive: -0.506; and GGCCUUUUUCUUUCUUUUCTT against Olfr212, with inactive: -0.849.
To GGCAGCCUGAACAUCAAUGTT against S100a13 belongs inactive: 1.47; to GGUCAUGUUAAAGGAAUCATT against Fam210a, inactive: 1.49; to GCAAUGAGGACUUACUUACTT against Echdc2, inactive: 0.757.
For GGUCUUUCUGGCAAUUCUCTT against Zscan20, the z-score is inactive: -0.606.
GGCAAGUGCAAUUUAUAAATT against Nfib: the z-score is inactive: 0.434.
Regarding CCACUUUUGUAAUGGAAGCTT against Mfsd6l, the z-score is inactive: 1.89.
To GGAAAAGUCCAAUGUGACCTT against Npy4r belongs inactive: -1.24; to GGAAAAGAGUGAGAUUCAGTT against Ino80, inactive: -1.99; to CGCAACCUGUCACAUAAUATT against Bmpr2, inactive: -0.238.
For CCACCAAGUGGUUUAUACATT against Atf7ip, the z-score is inactive: -0.472.
Then GGAAGACUCGGAGUUUCUATT against Ece2, with inactive: 1.73; and GGCACUAAUGAACAACUCUTT against Daam1, with inactive: -0.162.
Then CCAGUACAUUGAGCUGGAUTT against Bpifb3, with inactive: 1.82.
For the sequence GGGUAAGAGUUACAGAAUATT against Serpinb8, the z-score is inactive: -0.0947.
Turning to GGAUAAAUUCAAUGAGACATT against Afm, the z-score is inactive: 0.585.
On to CCUUGUUGCUCUGUCGAUCTT against Grina, for which the z-score is inactive: 0.0669.
Then GGUGAACAAGCUGUCCUCATT against Fgl2, with inactive: -0.651; and GGACUUAAGUACAAAGAUCTT against Sap18, with inactive: 1.46; and CCAUGGAAGUUUGAACUUATT against Cst13, with inactive: 0.733.
Then GCCUCAAGGCAUUGGCAAGTT against Defb28, with inactive: 1.25; and GGGCACUUCUGUCUUUGUCTT against P2rx3, with inactive: -1.57.
Then GGAAAUGCCUUCAGAAAUUTT against Slc9a3r1, with inactive: -1.22; and GCGAGAUAGGCUUUACUCUTT against Kdr, with inactive: -1.49; and GGUAUUAGUAUGUAUCUUCTT against Olfr135, with inactive: 0.305.
Regarding GGAAUGGUUUGAAGAACUUTT against Tlr6, the z-score is inactive: 0.559.
For the sequence GCAAAAGCGGGUCAAAAAATT against Lrrc72, the z-score was active: 2.27.
On to GGCUUAAUUACACAUGUUCTT against Il6, for which the z-score is inactive: -1.09.
With GCCAUGGUUAUUAAGCUGGTT against Olfr608, the z-score was inactive: -0.64.
On to GGCAAUCCUGUCCAACAAGTT against Hydin, for which the z-score is inactive: -1.54.
To CAACCCUGUAAGGUUGAUUTT against Oog3 belongs inactive: -0.423.
Then GCCUGCUUAAGCUACUUAUTT against Fam210b, with inactive: -1.04; and GGCUGCUUAAGUGUAUCAGTT against Cep78, with inactive: -1.16; and GGUGGUGUACAACAGAGUUTT against Ust, with inactive: 0.222.
Then GGAACCAACCAGGAGAAAUTT against Ms4a4d, with active: -2.58.
GGCGAACAAUUCCCUCAUUTT against Nos1: the z-score is inactive: -0.712.
With GGUGAAAGUUACGUGUGUGTT against Dclk2, the z-score is inactive: -0.4.
To CGGCUUUCAAUCACAACGGTT against Wdr91 belongs inactive: 0.889.
Then GGUUGAGAUGUUCCAUAGATT against C5ar2, with inactive: 0.779; and GGAAAAUUAGUAACCUCCCTT against Fam189b, with inactive: 1.08.
To GCGUUUCACGUACCUUCCUTT against Nfatc1 belongs inactive: 1.22; to GGACUUCAAAACAGAUCUGTT against H3f3a, inactive: 0.488; to GCACUAGCAAUUUUUCUUUTT against Tram1, inactive: -1.22.
In the case of GGAUGGGACUUUUGAAAAATT against Cd247, the z-score was inactive: 1.77.
Consider GCUCAAGUCUACGAGAGUUTT against Ccdc86, for which the z-score is inactive: 0.973.
For GGUGUUGAGAUCAUUCUGCTT against Olfr1264, the z-score was inactive: -0.618.
To GCUGAACCAAUGUAGAAUATT against Vps37c belongs inactive: -0.59.
To GCAUCUCAGGGAUUUAGAUTT against Marchf7 belongs inactive: 1.65; to GGCUCACUCAUUUGUCAGATT against Soat1, inactive: 0.0924; to GGUGAAGAAAGCGGAAAAGTT against Cstf3, inactive: -0.19.
Turning to GGUUGAAACUUUUUCUGGUTT against Rps7, the z-score is inactive: -0.0138.
To GGACAACUAGCUUCUUGUATT against Trdmt1 belongs inactive: -1.09; to CGGUCAAGUUUUGAUUCCATT against Prkaa2, inactive: -0.785.
Then GGACCUUAUUUGAAGCCUATT against Btnl9, with inactive: -0.596; and CGGAUGAGGUUUCUUUUAUTT against Phkb, with inactive: 0.415; and GCCUGCAUUCCAUAACACUTT against Prom1, with inactive: 0.192.
To GGGAGACGCAAAGCCUUAUTT against Olfr1238 belongs inactive: 0.644.
GCGACUGUUUCUAUCCCAATT against Rnaseh2c: the z-score was inactive: -0.208.
Then GGAUGCCAAUUUGGCUAAGTT against Hoatz, with inactive: 1.7; and GGAGUCUUGCUCUAUAUAATT against Arpc5, with inactive: 1.26; and GGCGGAGAAGGAGAUUUUATT against Cldn10, with inactive: 0.424.
To GGAAAUGCCACAGCUGUACTT against Foxn4 belongs inactive: -0.0146.
Then CCGGACAAGUCGUUUUUUATT against Nuf2, with inactive: -1.91; and GGUUUUUGUGUGGAUCUAUTT against Sec62, with inactive: 0.775.
On to GGAGGAUUCCCUUGUUCAATT against Rhbdd2, for which the z-score was inactive: 1.46.

These data come from PubChem BioAssay AID1508600 (Functional Genomics Laboratory (NCATS/FGL), 2020).
